Measured values from the supplement of paper PMC10849652.
Some of the results follow.

Chains of the proteins cited; added tags and fusions are not shown. Lines headed by an entry give the natural chain unless they say otherwise; changes in a name come on top.
UniProt Q6P5Z2: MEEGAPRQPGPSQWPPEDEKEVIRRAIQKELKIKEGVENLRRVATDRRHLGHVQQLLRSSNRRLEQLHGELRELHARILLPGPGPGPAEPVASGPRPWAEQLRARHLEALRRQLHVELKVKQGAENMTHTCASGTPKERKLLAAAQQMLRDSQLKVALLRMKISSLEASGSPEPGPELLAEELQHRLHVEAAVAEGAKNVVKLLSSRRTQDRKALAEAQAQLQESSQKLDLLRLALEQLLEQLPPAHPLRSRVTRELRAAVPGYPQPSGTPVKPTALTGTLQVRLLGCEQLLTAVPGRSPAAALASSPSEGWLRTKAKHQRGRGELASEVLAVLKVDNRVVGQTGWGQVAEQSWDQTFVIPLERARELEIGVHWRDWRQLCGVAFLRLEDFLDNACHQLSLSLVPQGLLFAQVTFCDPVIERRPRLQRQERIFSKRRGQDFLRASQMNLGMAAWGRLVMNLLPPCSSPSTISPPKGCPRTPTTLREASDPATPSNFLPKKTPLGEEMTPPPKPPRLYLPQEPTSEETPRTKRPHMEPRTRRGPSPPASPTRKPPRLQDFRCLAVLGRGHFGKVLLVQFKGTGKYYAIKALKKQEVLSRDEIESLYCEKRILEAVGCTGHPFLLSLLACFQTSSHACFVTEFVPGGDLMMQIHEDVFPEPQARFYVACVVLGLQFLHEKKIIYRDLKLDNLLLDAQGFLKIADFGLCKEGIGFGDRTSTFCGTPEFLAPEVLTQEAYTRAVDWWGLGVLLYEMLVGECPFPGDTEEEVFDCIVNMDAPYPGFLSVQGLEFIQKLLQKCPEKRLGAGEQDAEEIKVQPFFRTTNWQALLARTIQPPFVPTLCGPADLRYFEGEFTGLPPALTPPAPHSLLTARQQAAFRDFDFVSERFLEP
UniProt Q96G03: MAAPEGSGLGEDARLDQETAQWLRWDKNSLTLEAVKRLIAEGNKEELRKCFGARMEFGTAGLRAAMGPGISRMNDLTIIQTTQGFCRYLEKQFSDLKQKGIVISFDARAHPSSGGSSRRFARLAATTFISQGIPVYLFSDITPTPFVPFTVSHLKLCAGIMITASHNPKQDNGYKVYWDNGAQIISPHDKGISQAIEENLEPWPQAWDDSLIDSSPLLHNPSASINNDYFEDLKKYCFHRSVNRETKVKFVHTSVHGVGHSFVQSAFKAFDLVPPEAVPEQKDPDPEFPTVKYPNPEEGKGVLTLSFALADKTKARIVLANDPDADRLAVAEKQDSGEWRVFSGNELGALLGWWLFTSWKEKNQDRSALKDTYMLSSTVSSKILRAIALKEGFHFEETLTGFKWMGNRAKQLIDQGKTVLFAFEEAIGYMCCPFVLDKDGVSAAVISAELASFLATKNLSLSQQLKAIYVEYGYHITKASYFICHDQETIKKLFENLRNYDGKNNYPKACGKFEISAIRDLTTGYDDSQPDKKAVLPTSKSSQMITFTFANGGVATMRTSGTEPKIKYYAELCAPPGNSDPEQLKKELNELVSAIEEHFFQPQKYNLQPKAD
UniProt O75167: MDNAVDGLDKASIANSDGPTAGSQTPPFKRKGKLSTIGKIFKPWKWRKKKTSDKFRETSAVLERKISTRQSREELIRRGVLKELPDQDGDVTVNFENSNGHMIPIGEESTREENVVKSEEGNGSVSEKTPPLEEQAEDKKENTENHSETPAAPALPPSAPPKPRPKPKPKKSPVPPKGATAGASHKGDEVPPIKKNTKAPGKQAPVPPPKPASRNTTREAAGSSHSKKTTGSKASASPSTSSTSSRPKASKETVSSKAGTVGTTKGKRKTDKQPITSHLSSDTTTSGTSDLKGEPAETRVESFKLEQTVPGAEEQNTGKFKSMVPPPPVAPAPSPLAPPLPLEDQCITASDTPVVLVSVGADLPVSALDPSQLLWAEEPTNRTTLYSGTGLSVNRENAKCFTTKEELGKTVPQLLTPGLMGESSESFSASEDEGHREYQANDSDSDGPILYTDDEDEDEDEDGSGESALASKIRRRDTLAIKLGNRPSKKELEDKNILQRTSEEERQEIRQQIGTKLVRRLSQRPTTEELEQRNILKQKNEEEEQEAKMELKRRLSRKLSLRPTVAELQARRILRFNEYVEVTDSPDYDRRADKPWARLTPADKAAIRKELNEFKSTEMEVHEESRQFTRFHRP
UniProt O00264: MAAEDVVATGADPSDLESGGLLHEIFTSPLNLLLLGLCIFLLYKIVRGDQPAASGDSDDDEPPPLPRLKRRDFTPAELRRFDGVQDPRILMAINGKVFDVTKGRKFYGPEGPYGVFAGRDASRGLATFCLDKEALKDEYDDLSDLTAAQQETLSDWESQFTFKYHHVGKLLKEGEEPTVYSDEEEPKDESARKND
UniProt Q99471, whole entry, looked up: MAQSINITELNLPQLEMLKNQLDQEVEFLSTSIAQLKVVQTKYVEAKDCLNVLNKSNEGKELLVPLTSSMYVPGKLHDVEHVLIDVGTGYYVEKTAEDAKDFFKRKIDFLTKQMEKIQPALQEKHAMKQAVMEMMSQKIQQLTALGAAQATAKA
UniProt Q92508: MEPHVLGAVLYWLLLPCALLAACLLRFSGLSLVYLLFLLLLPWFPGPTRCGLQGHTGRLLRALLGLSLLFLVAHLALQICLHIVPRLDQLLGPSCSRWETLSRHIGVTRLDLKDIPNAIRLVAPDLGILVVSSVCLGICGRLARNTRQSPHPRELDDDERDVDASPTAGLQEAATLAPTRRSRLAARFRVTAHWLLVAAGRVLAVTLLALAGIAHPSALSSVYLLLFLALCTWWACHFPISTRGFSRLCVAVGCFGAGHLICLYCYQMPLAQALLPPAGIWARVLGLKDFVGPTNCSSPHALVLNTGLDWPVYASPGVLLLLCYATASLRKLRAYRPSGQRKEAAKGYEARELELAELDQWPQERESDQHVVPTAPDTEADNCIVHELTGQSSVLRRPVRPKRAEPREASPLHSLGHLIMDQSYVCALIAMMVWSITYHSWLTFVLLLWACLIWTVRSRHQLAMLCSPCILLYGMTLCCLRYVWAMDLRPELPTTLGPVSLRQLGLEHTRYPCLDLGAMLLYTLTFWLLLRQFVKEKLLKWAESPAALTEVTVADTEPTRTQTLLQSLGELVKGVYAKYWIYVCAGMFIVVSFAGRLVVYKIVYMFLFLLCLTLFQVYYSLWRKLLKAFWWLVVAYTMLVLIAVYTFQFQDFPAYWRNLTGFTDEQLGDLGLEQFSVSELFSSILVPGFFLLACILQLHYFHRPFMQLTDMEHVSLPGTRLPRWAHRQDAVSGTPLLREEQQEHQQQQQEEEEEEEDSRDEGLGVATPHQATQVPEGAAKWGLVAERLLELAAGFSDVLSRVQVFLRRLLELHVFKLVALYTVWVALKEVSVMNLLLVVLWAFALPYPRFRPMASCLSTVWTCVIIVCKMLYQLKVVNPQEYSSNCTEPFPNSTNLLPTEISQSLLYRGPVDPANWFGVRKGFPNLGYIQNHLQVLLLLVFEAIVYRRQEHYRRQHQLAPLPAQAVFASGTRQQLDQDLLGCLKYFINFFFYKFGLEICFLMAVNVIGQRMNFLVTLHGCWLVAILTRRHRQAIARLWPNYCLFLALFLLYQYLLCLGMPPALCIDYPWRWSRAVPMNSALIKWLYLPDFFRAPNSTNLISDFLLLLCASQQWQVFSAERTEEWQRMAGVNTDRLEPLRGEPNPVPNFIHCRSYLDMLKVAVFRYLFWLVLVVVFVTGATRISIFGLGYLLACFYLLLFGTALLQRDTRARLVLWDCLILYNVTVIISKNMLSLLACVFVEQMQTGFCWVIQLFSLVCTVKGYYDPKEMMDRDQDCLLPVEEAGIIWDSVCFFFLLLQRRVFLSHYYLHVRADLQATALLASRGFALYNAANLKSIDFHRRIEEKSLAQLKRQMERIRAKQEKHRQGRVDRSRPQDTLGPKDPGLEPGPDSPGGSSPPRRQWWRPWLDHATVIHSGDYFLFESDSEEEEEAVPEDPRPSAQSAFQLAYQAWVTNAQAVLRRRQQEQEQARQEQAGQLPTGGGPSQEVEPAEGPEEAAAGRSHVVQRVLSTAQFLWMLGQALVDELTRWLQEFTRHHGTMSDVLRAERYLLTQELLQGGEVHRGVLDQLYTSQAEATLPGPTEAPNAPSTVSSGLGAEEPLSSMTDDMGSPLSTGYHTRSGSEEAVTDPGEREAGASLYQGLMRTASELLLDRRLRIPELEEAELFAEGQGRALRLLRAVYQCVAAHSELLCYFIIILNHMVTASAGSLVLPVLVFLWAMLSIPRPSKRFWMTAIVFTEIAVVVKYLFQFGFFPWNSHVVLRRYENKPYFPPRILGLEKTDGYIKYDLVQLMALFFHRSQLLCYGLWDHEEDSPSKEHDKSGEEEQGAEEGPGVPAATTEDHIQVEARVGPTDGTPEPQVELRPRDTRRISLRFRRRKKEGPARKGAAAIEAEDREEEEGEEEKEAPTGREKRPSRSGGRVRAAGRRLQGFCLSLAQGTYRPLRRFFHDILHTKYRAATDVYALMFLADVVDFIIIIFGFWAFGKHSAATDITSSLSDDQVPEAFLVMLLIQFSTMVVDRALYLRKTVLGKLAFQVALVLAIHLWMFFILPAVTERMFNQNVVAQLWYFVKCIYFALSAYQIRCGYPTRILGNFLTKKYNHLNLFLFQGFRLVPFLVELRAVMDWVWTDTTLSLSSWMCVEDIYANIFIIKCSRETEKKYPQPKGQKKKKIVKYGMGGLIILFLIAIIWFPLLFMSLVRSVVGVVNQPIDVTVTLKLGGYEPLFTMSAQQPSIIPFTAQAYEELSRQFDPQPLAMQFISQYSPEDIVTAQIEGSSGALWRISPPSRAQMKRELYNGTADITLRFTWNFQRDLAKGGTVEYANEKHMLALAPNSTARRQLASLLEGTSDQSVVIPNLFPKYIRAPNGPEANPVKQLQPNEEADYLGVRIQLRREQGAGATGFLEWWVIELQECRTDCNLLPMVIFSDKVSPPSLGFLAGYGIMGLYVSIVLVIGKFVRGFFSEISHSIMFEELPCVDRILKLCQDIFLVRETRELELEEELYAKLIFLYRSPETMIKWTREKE
UniProt Q9H490: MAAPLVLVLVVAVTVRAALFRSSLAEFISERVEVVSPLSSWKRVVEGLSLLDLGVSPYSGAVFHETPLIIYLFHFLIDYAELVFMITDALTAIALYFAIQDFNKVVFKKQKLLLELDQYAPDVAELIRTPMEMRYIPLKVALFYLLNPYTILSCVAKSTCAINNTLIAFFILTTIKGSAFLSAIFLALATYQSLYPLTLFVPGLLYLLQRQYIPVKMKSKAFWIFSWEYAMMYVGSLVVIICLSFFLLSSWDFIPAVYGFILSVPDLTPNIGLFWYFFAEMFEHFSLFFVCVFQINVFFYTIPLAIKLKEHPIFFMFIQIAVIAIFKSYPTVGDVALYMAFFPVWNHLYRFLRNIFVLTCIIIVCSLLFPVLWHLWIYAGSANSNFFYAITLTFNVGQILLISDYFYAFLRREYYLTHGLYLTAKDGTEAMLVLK
UniProt P56589: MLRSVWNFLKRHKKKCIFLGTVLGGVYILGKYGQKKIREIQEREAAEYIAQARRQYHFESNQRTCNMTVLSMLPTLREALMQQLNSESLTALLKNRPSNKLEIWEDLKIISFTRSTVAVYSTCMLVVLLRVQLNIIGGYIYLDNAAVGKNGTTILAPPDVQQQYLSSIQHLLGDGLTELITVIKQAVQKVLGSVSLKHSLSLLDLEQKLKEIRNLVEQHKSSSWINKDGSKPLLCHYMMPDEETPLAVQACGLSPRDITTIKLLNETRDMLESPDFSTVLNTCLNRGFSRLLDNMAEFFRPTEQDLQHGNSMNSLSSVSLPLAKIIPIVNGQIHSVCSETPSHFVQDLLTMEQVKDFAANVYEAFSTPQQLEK
UniProt Q8WUB8: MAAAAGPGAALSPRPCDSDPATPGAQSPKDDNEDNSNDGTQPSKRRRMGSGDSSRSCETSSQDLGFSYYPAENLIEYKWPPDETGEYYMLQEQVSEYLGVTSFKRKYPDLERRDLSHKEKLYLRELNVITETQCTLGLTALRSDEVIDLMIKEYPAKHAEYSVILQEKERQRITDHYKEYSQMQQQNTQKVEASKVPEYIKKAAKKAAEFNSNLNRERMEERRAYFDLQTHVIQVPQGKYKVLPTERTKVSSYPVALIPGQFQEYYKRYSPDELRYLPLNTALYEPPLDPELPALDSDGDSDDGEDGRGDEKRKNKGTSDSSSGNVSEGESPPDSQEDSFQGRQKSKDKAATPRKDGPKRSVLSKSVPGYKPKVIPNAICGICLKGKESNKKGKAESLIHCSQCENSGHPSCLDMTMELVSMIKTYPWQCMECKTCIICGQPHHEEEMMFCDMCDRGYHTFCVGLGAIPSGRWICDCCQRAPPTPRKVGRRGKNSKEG
UniProt Q9NXJ5: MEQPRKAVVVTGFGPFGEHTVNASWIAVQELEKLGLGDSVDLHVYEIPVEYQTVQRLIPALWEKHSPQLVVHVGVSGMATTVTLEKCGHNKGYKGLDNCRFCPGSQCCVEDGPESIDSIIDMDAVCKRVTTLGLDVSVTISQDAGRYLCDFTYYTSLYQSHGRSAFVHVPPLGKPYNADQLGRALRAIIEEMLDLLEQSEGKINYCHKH

Experiments:
Assay in all cases: log2 fold change, soluble protein after heating vs DMSO (PISA); higher = thermal stabilisation; K562 cells, 10 uM, 30 min; active = over 0.2 and 3.5 SD of the protein, either way, in both replicates (recomputed)
[1] = compound: CS(=O)(=O)c1ccc(-c2cnc(N)c(C(=O)Nc3ccccc3)n2)cc1
Outline: (§1)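 Thermal stability values are relative to control samples and come from duplicates. They are expressed as log2 fold changes. For measurement, K562 cells (2×10^6 cells/mL) received 10 μM compound for 30 min, and aliquots were heated for 3 min over 48°C-58°C, pooled, and extracted at 4°C in PBS with 0.5% NP-40. Soluble protein, the supernatant after 21,000xg for 90 min, was quantified by TMTpro 16plex LC-MS/MS with equalised channel sums.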

crizotinib = compound: C[C@@H](Oc1cc(-c2cnn(C3CCNCC3)c2)cnc1N)c1c(Cl)ccc(F)c1Cl [crizotinib]
Outline: as §1

[2] = compound: C[C@@H]1COCCN1C2=NC(=NC(=C2)C3(CC3)S(=O)(=O)C)C4=C5C=CNC5=CC=C4
Outline: as §1

[3] = compound: C[C@H](C1=CC=C(C=C1)C(=O)NC2=C3C=CNC3=NC=C2)N
Outline: as §1

duvelisib = compound: C[C@H](Nc1ncnc2nc[nH]c12)c1cc2cccc(Cl)c2c(=O)n1-c1ccccc1 [duvelisib]
Outline: as §1

gandotinib = compound: Cc1cc(Nc2cc(CN3CCOCC3)c3nc(C)c(Cc4ccc(Cl)cc4F)n3n2)n[nH]1 [gandotinib]
Outline: as §1

tozasertib = compound: Cc1cc(Nc2cc(N3CCN(C)CC3)nc(Sc3ccc(NC(=O)C4CC4)cc3)n2)n[nH]1 [tozasertib]
Outline: as §1

[4] = compound: Cc1cc(SCc2sc(-c3ccc(C(F)(F)F)cc3)nc2C)ccc1OCC(=O)O
Outline: as §1

doramapimod = compound: Cc1ccc(-n2nc(C(C)(C)C)cc2NC(=O)Nc2ccc(OCCN3CCOCC3)c3ccccc23)cc1 [doramapimod]
Outline: as §1

ispinesib = compound: Cc1ccc(C(=O)N(CCCN)[C@@H](c2nc3cc(Cl)ccc3c(=O)n2Cc2ccccc2)C(C)C)cc1 [ispinesib]
Outline: as §1

Measured: log2 fold change

PGK1 (UniProt P00558)
inactive: [1] 0.08 | crizotinib 0.01 | [2] 0.087 | [3] -0.028 | duvelisib 0.05 | gandotinib -0.012 | tozasertib -0.013 | [4] 0.009 | doramapimod -0.017 | ispinesib 0.063

PKN3 (UniProt Q6P5Z2)
inactive: [1] 0.38

PFKFB4 (UniProt Q16877)
inactive: [1] 0.063 | crizotinib -0.014 | [2] -0.02 | [3] 0.002 | duvelisib 0.049 | gandotinib -0.079 | tozasertib -0.074 | [4] 0.012 | doramapimod 0.061 | ispinesib -0.023

PLCD1 isoform 2 (UniProt P51178)
inactive: [1] -0.022 | crizotinib -0.169 | [2] 0.068 | [3] -0.017 | duvelisib 0.054 | gandotinib -0.064 | tozasertib -0.055 | [4] 0.05 | doramapimod 0.041 | ispinesib -0.11

PFN1 (UniProt P07737)
inactive: [1] -0.007 | crizotinib 0.05 | [2] 0.037 | [3] -0.099 | duvelisib 0 | gandotinib -0.046 | tozasertib 0.016 | [4] -0.04 | doramapimod -0.034 | ispinesib 0.055

PHF3 (UniProt Q92576)
inactive: [1] -0.091 | crizotinib -0.013 | [2] -0.074 | [3] 0.262 | duvelisib -0.091 | gandotinib 0.093 | tozasertib -0.095 | [4] 0.009 | doramapimod 0.115 | ispinesib -0.066

PGM2 (UniProt Q96G03)
inactive: [1] 0.006 | crizotinib 0.032 | [2] 0.056 | [3] -0.078 | duvelisib 0 | gandotinib -0.029 | tozasertib -0.013 | [4] -0.041 | doramapimod 0 | ispinesib 0.028

PHACTR2 isoform 4 (UniProt O75167)
inactive: [1] -0.004 | crizotinib -0.017 | [2] 0.201 | [3] 0.047 | duvelisib -0.015 | gandotinib 0.079 | tozasertib -0.027 | [4] -0.087 | doramapimod 0.004 | ispinesib 0.065

PGLS (UniProt O95336)
inactive: [1] -0.061 | crizotinib 0.018 | [2] 0.23 | [3] -0.132 | duvelisib 0.31 | gandotinib 0.034 | tozasertib 0.063 | [4] -0.032 | doramapimod -0.014 | ispinesib 0.246

PIGA (UniProt P37287)
inactive: [1] 0.066 | crizotinib 0.022 | [2] 0.061 | [3] -0.054 | duvelisib 0.189 | gandotinib 0.195 | tozasertib 0.013 | [4] 0.143 | doramapimod -0.012 | ispinesib 0.077

PIK3CB (UniProt P42338)
active: duvelisib 0.318
inactive: [1] 0.043 | crizotinib -0.077 | [2] 0.064 | [3] 0.034 | gandotinib -0.041 | [4] 0.06 | doramapimod 0 | ispinesib -0.057

PIP5K1A (UniProt Q99755)
inactive: [1] -0.049 | crizotinib -0.024 | [2] -0.084 | [3] 0.077 | duvelisib -0.051 | gandotinib 0.096 | tozasertib 0.095 | [4] -0.049 | doramapimod 0.097 | ispinesib -0.351

PGRMC1 (UniProt O00264)
inactive: [1] -0.029 | crizotinib 0.1 | [2] -0.065 | [3] -0.017 | duvelisib -0.011 | gandotinib 0 | tozasertib -0.003 | [4] -0.041 | doramapimod -0.034 | ispinesib 0.143

PHAX (UniProt Q9H814)
inactive: [1] -0.034 | crizotinib 0.097 | [2] -0.036 | [3] -0.01 | gandotinib 0.035 | [4] -0.062 | doramapimod -0.016 | ispinesib 0.017

PFDN5 (UniProt Q99471)
inactive: [1] -0.048 | crizotinib 0.13 | [2] 0.078 | [3] -0.148 | duvelisib 0.038 | gandotinib 0.054 | tozasertib 0.08 | [4] -0.021 | doramapimod 0.019 | ispinesib 0.194

PHKB isoform 3 (UniProt Q93100)
inactive: [1] -0.024 | crizotinib -0.033 | [2] 0.031 | [3] 0.128 | duvelisib -0.02 | gandotinib 0.049 | tozasertib 0.011 | [4] 0.062 | doramapimod 0.055 | ispinesib -0.107

PIH1D1 (UniProt Q9NWS0)
inactive: [1] 0.031 | crizotinib -0.043 | [2] -0.006 | [3] 0.03 | duvelisib 0.094 | gandotinib -0.052 | tozasertib 0.059 | [4] -0.112 | doramapimod -0.006 | ispinesib -0.037

PIN4 isoform 2 (UniProt Q9Y237)
inactive: [1] 0.04 | crizotinib 0.008 | [2] 0.04 | [3] -0.053 | duvelisib 0.053 | gandotinib 0.002 | tozasertib 0.011 | [4] 0.011 | doramapimod -0.028 | ispinesib 0.082

PICALM (UniProt Q13492)
inactive: [1] 0.047 | crizotinib -0.003 | [2] 0.061 | [3] -0.048 | duvelisib 0.031 | gandotinib -0.066 | tozasertib -0.038 | [4] -0.05 | doramapimod -0.017 | ispinesib -0.011

PIK3R1 (UniProt P27986)
inactive: [1] 0.033 | crizotinib -0.044 | [2] 0.002 | [3] 0.022 | gandotinib -0.038 | [4] 0.051 | doramapimod 0.056 | ispinesib -0.079
active: duvelisib 0.232

PFKM isoform 3 (UniProt P08237)
inactive: [1] 0 | crizotinib 0.051 | [2] 0.041 | [3] -0.04 | duvelisib 0.017 | gandotinib 0.01 | tozasertib -0.022 | [4] -0.021 | doramapimod 0.013 | ispinesib 0.038

PIEZO1 (UniProt Q92508)
inactive: [1] 0.08 | crizotinib 0.069 | [2] -0.028 | [3] -0.025 | duvelisib -0.027 | gandotinib 0.086 | tozasertib -0.018 | [4] 0.001 | doramapimod 0.03 | ispinesib 0.024

PIGU (UniProt Q9H490)
inactive: [1] -0.105 | crizotinib -0.14 | [2] 0.151 | [3] -0.145 | duvelisib -0.004 | gandotinib -0.111 | tozasertib 0.045 | [4] -0.012 | doramapimod 0.062 | ispinesib 0.019

Fetched one by one from the list above (2):
PIEZO1 (UniProt Q92508)
inactive: [1] 0.08 | crizotinib 0.069 | [2] -0.028 | [3] -0.025 | duvelisib -0.027 | gandotinib 0.086 | tozasertib -0.018 | [4] 0.001 | doramapimod 0.03 | ispinesib 0.024

PIGU (UniProt Q9H490)
inactive: [1] -0.105 | crizotinib -0.14 | [2] 0.151 | [3] -0.145 | duvelisib -0.004 | gandotinib -0.111 | tozasertib 0.045 | [4] -0.012 | doramapimod 0.062 | ispinesib 0.019

(next part)

PFN1 (UniProt I3L3D5)
inactive: [1] 0.107 | crizotinib 0.054 | [2] -0.172 | [3] 0.164 | gandotinib -0.013 | tozasertib -0.055 | doramapimod -0.135 | ispinesib -0.361

PGM2L1 (UniProt Q6PCE3)
inactive: [1] 0.025 | crizotinib 0.013 | [2] 0.033 | [3] -0.013 | duvelisib -0.012 | gandotinib -0.038 | tozasertib -0.042 | [4] -0.056 | doramapimod -0.022 | ispinesib 0.031

PEX3 (UniProt P56589)
inactive: [1] 0.193 | crizotinib 0.009 | [2] -0.068 | [3] -0.015 | duvelisib -0.353 | tozasertib -0.149 | [4] 0.063 | doramapimod -0.044 | ispinesib 0.105

PKP3 isoform 2 (UniProt Q9Y446)
inactive: [1] 0.05 | crizotinib -0.089 | [2] -0.217 | [3] 0.141 | duvelisib -0.047 | gandotinib 0.023 | tozasertib -0.092 | [4] 0.278 | doramapimod 0.102 | ispinesib -0.276

PEX16 isoform 2 (UniProt Q9Y5Y5)
inactive: [1] -0.001 | crizotinib -0.142 | [2] 0.052 | [3] -0.072 | gandotinib -0.104 | [4] 0.057 | doramapimod 0.106 | ispinesib -0.23

PHF10 (UniProt Q8WUB8)
inactive: [1] -0.015 | crizotinib -0.131 | [2] -0.015 | [3] 0.207 | duvelisib 0 | gandotinib 0.05 | tozasertib 0.07 | [4] 0.042 | doramapimod 0.005 | ispinesib 0.076

PFDN2 (UniProt Q9UHV9)
inactive: [1] -0.011 | crizotinib 0.012 | [2] 0.061 | [3] -0.019 | duvelisib 0.057 | gandotinib -0.041 | tozasertib 0.006 | [4] -0.002 | doramapimod 0.014 | ispinesib 0.004

PGPEP1 (UniProt Q9NXJ5)
inactive: [1] 0.004 | crizotinib -0.193 | [2] 0.07 | [3] 0.08 | duvelisib -0.02 | [4] 0.136 | doramapimod -0.008 | ispinesib 0.083

PHC2 isoform 5 (UniProt Q8IXK0)
inactive: [1] -0.004 | crizotinib 0.088 | [2] -0.041 | [3] -0.017 | duvelisib -0.052 | [4] -0.023 | doramapimod 0.133 | ispinesib -0.113
